Results are given in words; binding and its absence hold for the method and conditions named. Some results given as binding are weak or reduced against the parent protein; the word gives no strength.

Sequences of proteins named here, by UniProt entry; tags and fusion partners are left off.
UniProt P28482: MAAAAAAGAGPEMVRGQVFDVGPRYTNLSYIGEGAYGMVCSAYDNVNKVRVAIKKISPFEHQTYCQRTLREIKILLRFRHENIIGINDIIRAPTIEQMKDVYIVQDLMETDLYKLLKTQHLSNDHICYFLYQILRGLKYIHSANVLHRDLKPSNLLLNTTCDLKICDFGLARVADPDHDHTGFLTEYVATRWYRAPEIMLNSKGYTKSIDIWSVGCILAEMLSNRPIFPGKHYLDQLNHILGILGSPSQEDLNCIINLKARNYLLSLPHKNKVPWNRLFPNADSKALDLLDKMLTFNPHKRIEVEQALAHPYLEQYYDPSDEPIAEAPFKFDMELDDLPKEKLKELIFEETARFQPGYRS

For the assay, the target named is ERK2-mAG1-PB1 (UniProt P28482). Put plainly: homoFluoppi (homo-dimerisation-dependent fluorescent puncta in living cells); Cos-7 cells transiently expressing ERK2-mAG1-PB1, pre-treated with 20 μM DEL22379 for 30 min, then 50 ng/ml EGF.

In the case of “ERK2-mAG1-PB1 (from UniProt P28482 1-360) (enzyme)”, the binding result was “binds weakly”.
